PubChem BioAssay AID1259308 – NCATS | 2017
The deposit covers about 59,000 reagents; below is a random part of them. About 1,510 of all reagents (2.6%) were called active. 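Calls use total luciferase alone and ignore viability, so some active siRNAs may act by altering cell number.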 Unmarked entries are inactive. The numbers tell different reagents against one gene apart. Further read-outs or replicates are left out here.

Screen: 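Genes whose loss raises luciferase production in HEK293 cells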 (primary screen)
System: human HEK293 embryonic kidney cells stably expressing firefly luciferase (HEK-CMV-Luc2-Hygro)
Knock-down reagent: single siRNA against human genes, 0.8 pmol siRNA per well
Timing: 72 h
Detection: 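Luciferase light (ONE-Glo) measured on one replicate plate set and viability (CellTiter-Glo) on the other, scaled to a negative control siRNA, with robust z-scores and luciferase per cell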
Direction: total luciferase, z-score and total luciferase, % of control: higher = more reporter protein produced
Active means: 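An siRNA counts as active if its total luciferase robust z-score exceeds 3; genes with two or more such siRNAs out of three were retested with fresh siRNAs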
Calls: active = raised luciferase; inactive = no rise

With knock-down of RPL24 (ribosomal protein L24) #1, the record shows total luciferase, z-score -3.2; total luciferase, % of control 18.1.
RPL24 (ribosomal protein L24) #2 showed total luciferase, z-score -2.14; total luciferase, % of control 39.3.
With knock-down of RPL24 (ribosomal protein L24) #3, the record shows total luciferase, z-score -1.96; total luciferase, % of control 42.9.
Against MRPL33 (mitochondrial ribosomal protein L33) #1, the values are total luciferase, z-score -0.601; total luciferase, % of control 69.9.
With knock-down of MRPL33 (mitochondrial ribosomal protein L33) #2 the results were total luciferase, z-score -1.22; total luciferase, % of control 57.6.
Against MRPL33 (mitochondrial ribosomal protein L33) #3, the values are total luciferase, z-score -1.68; total luciferase, % of control 48.4.
ATP6V0A4 (ATPase H+ transporting V0 subunit a4) #1 scored total luciferase, z-score -0.792; total luciferase, % of control 66.1.
Silencing of ATP6V0A4 (ATPase H+ transporting V0 subunit a4) #2 resulted in: total luciferase, z-score 0.102; total luciferase, % of control 83.9.
After knock-down of ATP6V0A4 (ATPase H+ transporting V0 subunit a4) #3 the results were total luciferase, z-score 0.474; total luciferase, % of control 91.3.
Knock-down of TRPM7 #1 resulted in: total luciferase, z-score 0.26; total luciferase, % of control 87.1.
After knock-down of TRPM7 #2, the record shows total luciferase, z-score -1.4; total luciferase, % of control 54.1.
Silencing of TRPM7 #3 resulted in: total luciferase, z-score -1.58; total luciferase, % of control 50.5.
With knock-down of SFPQ (splicing factor proline and glutamine rich) #1 the results were total luciferase, z-score 5.09 (active); total luciferase, % of control 183.
SFPQ (splicing factor proline and glutamine rich) #2 scored total luciferase, z-score 2.44; total luciferase, % of control 130.
After knock-down of SFPQ (splicing factor proline and glutamine rich) #3, the record shows total luciferase, z-score 1.06; total luciferase, % of control 103.
CMTM3 (CKLF like MARVEL transmembrane domain containing 3) #1 gave total luciferase, z-score 0.578; total luciferase, % of control 93.4.
Knock-down of CMTM3 (CKLF like MARVEL transmembrane domain containing 3) #2 resulted in: total luciferase, z-score 0.671; total luciferase, % of control 95.2.
Silencing of CMTM3 (CKLF like MARVEL transmembrane domain containing 3) #3 gave: total luciferase, z-score 0.594; total luciferase, % of control 93.7.
With knock-down of UGGT1 (UDP-glucose glycoprotein glucosyltransferase 1) #1, the screen gave total luciferase, z-score -1.21; total luciferase, % of control 57.7.
Against UGGT1 (UDP-glucose glycoprotein glucosyltransferase 1) #2, the entry reads total luciferase, z-score -0.238; total luciferase, % of control 77.2.
After knock-down of UGGT1 (UDP-glucose glycoprotein glucosyltransferase 1) #3, the record shows total luciferase, z-score -0.506; total luciferase, % of control 71.8.

2 entries from above, reduced to “total luciferase, % of control”:
ATP6V0A4 (ATPase H+ transporting V0 subunit a4) #2	83.9
ATP6V0A4 (ATPase H+ transporting V0 subunit a4) #3	91.3
